Results reported in patent publication US12582695B2, “Compositions and methods for treating glioma” (Instytut Biologii Doświadczalnej im. Marcelego Nenckiego …, priority 2018, dated 2026).
At least one peptide structure holds a part that was inferred or is arguable (an end, a ring closure or a residue). Some entries repeat one wording, which the source may state once for all of them. Where no end group is shown, it is not given here.

The chains behind the UniProt entries cited, without tags or fusion partners. Residues count along the entry.
UniProt P04141, 18-144: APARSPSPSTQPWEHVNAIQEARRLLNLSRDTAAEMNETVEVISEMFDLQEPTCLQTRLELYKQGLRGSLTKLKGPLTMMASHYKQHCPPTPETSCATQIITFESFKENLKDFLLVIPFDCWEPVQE

Columns and labels:
GM-CSF = target: T1, GM-CSF (Homo sapiens, UniProt P04141); assay: SPR (BIAcore 3000), peptides injected over immobilized GM-CSF; assay type: binding; settings: GM-CSF immobilized on chip, FIG. 2C
T1 construct: His; made in house

U87 MG glioma cells [1] = assay: Matrigel invasion of U87 MG cells in presence of BV2 microglia; assay type: cell-based, human; settings: 18 h, FIG. 4A
U87 MG glioma cells [2] = assay: Matrigel invasion of U87 MG cells in presence of SV40 human microglia; assay type: cell-based; settings: 18 h, FIG. 4B

Sequence	binding to GM-CSF (SPR) (GM-CSF)	invasiveness of U87 MG cells in the presence of BV2 cells (U87 MG glioma cells [1])	invasiveness of U87 MG cells in the presence of SV40 human microglial cells (U87 MG glioma cells [2])
ADVRILNWSSWSEA [G15]	GM-CSF binding		
IERFNPPSNVTVRC [G3]	GM-CSF binding		
NHEVEDEIIWEEFT [G25]		reduced the invasiveness	inhibited invasiveness
WSSWSEAIEFGSDD [G16]	GM-CSF binding		
